Test results reported in patent publication US20260191905A1 (MODERNATX, published 2026).
No constants are given. Whether binding was seen depends on the method and setting. Some entries that bind do so weakly or less than the wild type. Tags and fused reporters may be left off the sequences shown.

Chains of the proteins cited; added tags and fusions are not shown. Lines headed by an entry give the natural chain unless they say otherwise; changes in a name come on top.
UniProt P51654: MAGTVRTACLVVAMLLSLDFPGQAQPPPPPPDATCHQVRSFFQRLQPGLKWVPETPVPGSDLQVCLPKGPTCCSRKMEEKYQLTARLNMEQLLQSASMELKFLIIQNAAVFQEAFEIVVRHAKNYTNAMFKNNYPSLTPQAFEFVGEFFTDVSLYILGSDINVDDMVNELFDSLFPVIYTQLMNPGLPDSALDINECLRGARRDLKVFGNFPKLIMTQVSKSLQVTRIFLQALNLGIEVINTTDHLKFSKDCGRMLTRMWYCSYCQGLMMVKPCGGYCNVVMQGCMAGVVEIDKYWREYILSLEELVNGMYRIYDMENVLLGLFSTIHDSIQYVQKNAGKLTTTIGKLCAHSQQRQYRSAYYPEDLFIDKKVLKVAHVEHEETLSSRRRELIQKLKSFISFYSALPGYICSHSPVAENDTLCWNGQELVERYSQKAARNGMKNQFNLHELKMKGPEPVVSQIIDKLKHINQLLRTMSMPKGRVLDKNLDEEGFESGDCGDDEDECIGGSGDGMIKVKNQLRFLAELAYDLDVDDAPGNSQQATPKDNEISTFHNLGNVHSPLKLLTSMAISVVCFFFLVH

Molecular target: T1, human GPC3 recombinant protein (human, UniProt P51654 25-559)
T1 construct: also called huGPC3; Human GPC3 protein
Experiment: SPR epitope binning on human GPC3
Description: The 19 VHH-His tagged domains were then evaluated for epitope-binding site. All VHHs were injected one at a time to evaluate the epitope binding site for each VHH domain. […] Human GPC3 was injected followed by an off rate wash for 4 minutes. No binding is observed if the VHH binds at the same epitope as VHH2, while a second binding event is observed if the VHH binds at a different epitope. All VHHs were binned into two groups based on the epitopes. VHH2 and VHH3 bind the same epitope and all other VHs bind the second epitope (FIG. 19).

B1: anti-GPC3 VHH-His tagged domain VHH3 (VHH)
VHH: EVQLVESGGGVVQPGRSLRLSCAASGFTFSNYLMQWVRQAPGKGLVWLSNINSDGSSTDYADSVKGRFTISRDNAKNTLYLQMNSLRAEDTAVYYCRVGAFDYWGQGTLVTVSS
notes: Produced from a mammalian expression vector as a His fusion; not shown: His tag
binding: binds

B2: anti-GPC3 VHH-His tagged domain VHH6 (VHH)
VHH: QVQLVESGGGLVQPGGSLRLSCAASGFIFSSYAMSWVRQAPGKEPEWVSSISGGGSSTYYADSLEGRFTISRDNSKNTLYLQMNSLRAEDTAVYYCSKDPRFGEPPFDYWGQGTTVTVSS
notes: as for B1
binding: binds
